{
  "source": "patent US5399566A",
  "about": "“Pyridine derivatives having angiotensin II antagonism” (Meiji Seika Kabushiki Kaisha, priority 1990, dated 1995)",
  "test_system": "hypertensive action by angiotensin II",
  "experiment": "Inhibition on the hypertensive action by an exogenous angiotensin II in conscious rats",
  "type": "in vivo, Spraque-Dawley (SD) male rats",
  "settings": "oral, angiotensin II 0.1 μg/kg i.v.",
  "excerpt": "The angiotensin II antagonistic activities in vitro were compared on the basis of the intensities (pA2 value) of antagonizing the contraction response to angiotensin II at the isolated thoracic aorta of rabbit. The in vivo activities were examined by comparing the inhibitory effects on the hypertensive action by an exogenous angiotensin II in a non-anesthetized rat and the hypotensive effects of a renal hypertensive rat or a spontaneously hypertensive rat.\nAnesthetized Spraque-Dawley (SD) male rats were cannulated into a femoral artery and a femoral vein and used for the experiment at the time when it has elapsed at least 24 hours after the operation. The hypertensive action caused by angiotensin II (0.1 μg/kg) which has been administered through the vein catheter was measured under conscious and unrestrained condition before and after administration of the compound. The artery catheter was connected to a pressure transducer to measure a mean blood pressure, and the subject compounds were orally administered in the form of a homogeneous suspension in a 0.5% aqueous carboxymethyl cellulose solution.\nThe intensities of the inhibitory effects within 6 hours after administration of the compound were examined on the basis of the dose of the compound required for inhibiting the hypertensive action by angiotensin II to the extent of 50% (ED50 values).",
  "note": "For at least one compound, name, drawing or mass did not settle the structure.",
  "data": [
    {"smiles": "Cc1cc(OCc2ccc(-c3ccccc3-c3nnn[nH]3)cc2)c(C=O)c(C)n1", "note": "[Example 68, 3-Formyl-2,6-dimethyl-4-[2'-(tetrazol-5-yl)biphenyl-4-yl]methoxypyridine]", "values": [
      {"measurement": "inhibitory effect on the hypertensive action by angiotensin II", "setting": "3 mg/kg", "value": "significant inhibitory effects"}
    ]},
    {"smiles": "CCc1cc(OCc2ccc(-c3ccccc3-c3nnn[nH]3)cc2)cc(C)n1", "note": "[Example 3, 2-ethyl-6-methyl-4-[2'-(tetrazol-5-yl)biphenyl-4-yl]-methoxypyridine]", "values": [
      {"measurement": "inhibitory effect on the hypertensive action by angiotensin II", "setting": "dose of 1 mg/kg or less", "value": "significant inhibitory effects"}
    ]}
  ]
}
